# Experimental data as given in the supplement of paper PMC4604168 (melanoma cell lines).
# This is one part of the list. Single values are uncertain, as repeats are few or missing.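 The apoptosis fraction was the count of cleaved-PARP antibody-stained nuclei relative to all DNA-stained nuclei, imaged in 1,536-well plates. Screening doses were set so most cells survived, and baseline and induced cleaved-PARP levels vary greatly across cell lines.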
# Test system: COLO792
# Assay: cleaved PARP positive nuclei fraction relative to DMSO control; melanoma cells; higher = more apoptosis
# Conditions: library dose: low library concentration; 72 h
row,SMILES,cleaved PARP positive nuclei fraction [%]
1,"CC(=O)O[C@@]12CO[C@@H]1C[C@H](O)[C@@]1(C)C(=O)[C@H](O)C3=C(C)[C@@H](OC(=O)[C@H](O)[C@@H](NC(=O)OC(C)(C)C)c4ccccc4)C[C@@](O)([C@@H](OC(=O)c4ccccc4)[C@H]21)C3(C)C [Docetaxel] + COc1cc(Nc2ncc(F)c(Nc3ccc4c(n3)NC(=O)C(C)(C)O4)n2)cc(OC)c1OC [Tamatinib] (first compound 0.0001 µM, partner dose 0.4 µM)",2190
2,"CS(=O)(=O)c1ccc(C(=O)Nc2ccc(Cl)c(-c3ccccn3)c2)c(Cl)c1 [vismodegib] + CO[C@@H]1[C@H](N(C)C(=O)c2ccccc2)C[C@H]2O[C@]1(C)n1c3ccccc3c3c4c(c5c6ccccc6n2c5c31)C(=O)NC4 [Midostaurin] (first compound 1 µM, partner dose 0.08 µM)",88.3
3,"CC(=O)O[C@@]12CO[C@@H]1C[C@H](O)[C@@]1(C)C(=O)[C@H](O)C3=C(C)[C@@H](OC(=O)[C@H](O)[C@@H](NC(=O)OC(C)(C)C)c4ccccc4)C[C@@](O)([C@@H](OC(=O)c4ccccc4)[C@H]21)C3(C)C [Docetaxel] + C[C@@H]1CCN(C(=O)CC#N)C[C@@H]1N(C)c1ncnc2[nH]ccc12 [CP690550] (first compound 0.0001 µM, partner dose 1 µM)",369
4,"Cn1cnc2c(F)c(Nc3ccc(Br)cc3Cl)c(C(=O)NOCCO)cc21 [selumetinib] + O=C(Nc1cccc(Cl)c1)Nc1ncc(CCNc2ncnc3ccsc23)s1 [SNS314] (first compound 0.015 µM, partner dose 0.0008 µM)",95.6
5,"NC(=O)c1ccc(N(C(N)=O)c2c(F)cccc2F)nc1-c1ccc(F)cc1F + OCCn1cc(-c2cnc3nnn(Cc4ccc5ncccc5c4)c3n2)cn1 [PF04217903] (first compound 0.4 µM, partner dose 1 µM)",112
6,"CC1(C)CCC(c2ccc(Cl)cc2)=C(CN2CCN(c3ccc(C(=O)NS(=O)(=O)c4ccc(N[C@H](CCN5CCOCC5)CSc5ccccc5)c(S(=O)(=O)C(F)(F)F)c4)cc3)CC2)C1 + CO[C@@H]1[C@H](N(C)C(=O)c2ccccc2)C[C@H]2O[C@]1(C)n1c3ccccc3c3c4c(c5c6ccccc6n2c5c31)C(=O)NC4 [Midostaurin] (first compound 0.4 µM, partner dose 0.08 µM)",841
